# Reference: PubChem BioAssay AID1224826 (NIAID, 2016)
# Purpose: 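Genes that change LPS-induced Tnf promoter activity in mouse macrophages when knocked down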 (primary screen)
# Cell system: RAW264.7 G9 macrophages from mouse bearing reporters for p65 (GFP) and the Tnf promoter (mCherry)
# Reagents: siRNA pool against mouse genes, 100 nM
# Timing: 16 h of LPS stimulation, after 2 days of siRNA transfection
# Challenge: bacterial lipopolysaccharide (Salmonella minnesota R595), 10 ng/ml
# Read-out: 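Imaged Tnf reporter mCherry in nuclei, minus background, normalised per plate to the median and expressed as robust z-scores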
# Reading the numbers: Tnf reporter robust z-score: higher = stronger Tnf promoter reporter signal after LPS
# Hit rule: 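Called active when robust z-score is at most -1.3, matching the median of the Tlr4 knock-down control, or over 3; control wells and wells with under 50 cells never active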
# Meaning of the calls: active = Tnf reporter clearly lowered or raised; inactive = no clear change in Tnf reporter
# The whole screen tested about 17,000 reagents; this is a random part of them. About 1,110 of them (6.6%) count as active. 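Active means lowered or raised reporter signal; replicate intensities are raw and not normalised per plate.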 Reagents against one gene are numbered here. Further read-outs or replicates are left out here. No sequences are given here.
gene knocked down,reagent no.,Tnf reporter robust z-score,fewer than 50 cells in well,activity call
Anapc13 (anaphase promoting complex subunit 13),1,-0.72,enough cells in well,inactive
Lyz3 (lysozyme 3),1,-1.42,enough cells in well,active
Castor2 (cytosolic arginine sensor for mTORC1 subunit 2),1,-0.53,enough cells in well,inactive
Gm5089 (predicted gene 5089),1,0.47,enough cells in well,inactive
Hdac2 (histone deacetylase 2),1,,fewer than 50 cells per well; well left out of calls,inactive
Mrpl39 (mitochondrial ribosomal protein L39),1,1.86,enough cells in well,inactive
Baiap2l2 (BAI1-associated protein 2-like 2),1,-0.56,enough cells in well,inactive
"Mpl (Mpl proto-oncogene, thrombopoietin receptor)",1,-0.41,enough cells in well,inactive
Or1e16 (olfactory receptor family 1 subfamily E member 16),1,2.7,enough cells in well,inactive
9530009G21Rik (RIKEN cDNA 9530009G21 gene),1,0.67,enough cells in well,inactive
Ccnb2 (cyclin B2),1,0.05,enough cells in well,inactive
Oas2 (2'-5' oligoadenylate synthetase 2),1,-0.26,enough cells in well,inactive
Msgn1 (mesogenin 1),1,0.46,enough cells in well,inactive
Or4f59 (olfactory receptor family 4 subfamily F member 59),1,0.63,enough cells in well,inactive
Cd300ld (CD300 molecule like family member d),1,-0.73,enough cells in well,inactive
Ilk (integrin linked kinase),1,-0.89,enough cells in well,inactive
"Mgat4a (mannoside acetylglucosaminyltransferase 4, isoenzyme A)",1,1.42,enough cells in well,inactive
"Calca (calcitonin/calcitonin-related polypeptide, alpha)",1,-0.14,enough cells in well,inactive
Rpl15 (ribosomal protein L15),1,-0.91,enough cells in well,inactive
Ginm1 (glycoprotein integral membrane 1),1,2.07,enough cells in well,inactive
Mynn (myoneurin),1,-0.64,enough cells in well,inactive
Zfp449 (zinc finger protein 449),1,-0.44,enough cells in well,inactive
Fgf5 (fibroblast growth factor 5),1,-0.21,enough cells in well,inactive

3 entries from above, sorted by “Tnf reporter robust z-score”, high to low.
gene knocked down,reagent no.,Tnf reporter robust z-score,fewer than 50 cells in well,activity call
Gm5089 (predicted gene 5089),1,0.47,enough cells in well,inactive
Castor2 (cytosolic arginine sensor for mTORC1 subunit 2),1,-0.53,enough cells in well,inactive
Lyz3 (lysozyme 3),1,-1.42,enough cells in well,active

The results go on:
gene knocked down,reagent no.,Tnf reporter robust z-score,fewer than 50 cells in well,activity call
"Spon2 (spondin 2, extracellular matrix protein)",1,-0.27,enough cells in well,inactive
Trdmt1 (tRNA aspartic acid methyltransferase 1),1,0.52,enough cells in well,inactive
Slco5a1,1,,fewer than 50 cells per well; well left out of calls,inactive
Srek1 (splicing regulatory glutamine/lysine-rich protein 1),1,1.51,enough cells in well,inactive
Gk2 (glycerol kinase 2),1,-0.54,enough cells in well,inactive
Fstl3 (follistatin-like 3),1,-0.59,enough cells in well,inactive
Krtap31-1 (keratin associated protein 31-1),1,,fewer than 50 cells per well; well left out of calls,inactive
Rho (rhodopsin),1,-0.2,enough cells in well,inactive
Phgdh (3-phosphoglycerate dehydrogenase),1,0.09,enough cells in well,inactive
4931414P19Rik (RIKEN cDNA 4931414P19 gene),1,,fewer than 50 cells per well; well left out of calls,inactive
Umodl1 (uromodulin-like 1),1,1.56,enough cells in well,inactive
Ehd1 (EH-domain containing 1),1,0.13,enough cells in well,inactive
Slc9d1,1,-0.43,enough cells in well,inactive
Anp32a (acidic nuclear phosphoprotein 32 family member A),1,-0.78,enough cells in well,inactive
Krtap21-1 (keratin associated protein 21-1),1,1.24,enough cells in well,inactive
Krtap21-1 (keratin associated protein 21-1),2,-0.11,enough cells in well,inactive
Utrn (utrophin),1,0.43,enough cells in well,inactive
Mrm3 (mitochondrial rRNA methyltransferase 3),1,,fewer than 50 cells per well; well left out of calls,inactive
Gabrb1 (gamma-aminobutyric acid type A receptor subunit beta 1),1,-1.5,enough cells in well,active
"Adar (adenosine deaminase, RNA-specific)",1,-0.24,enough cells in well,inactive
"Cyp11b2 (cytochrome P450, family 11, subfamily b, polypeptide 2)",1,-0.62,enough cells in well,inactive
Gorasp1 (golgi reassembly stacking protein 1),1,0.78,enough cells in well,inactive
Ndufa12 (NADH:ubiquinone oxidoreductase subunit A12),1,,fewer than 50 cells per well; well left out of calls,inactive
Nap1l3 (nucleosome assembly protein 1-like 3),1,0.98,enough cells in well,inactive
Robo3 (roundabout guidance receptor 3),1,0.88,enough cells in well,inactive
Or51a39 (olfactory receptor family 51 subfamily A member 39),1,-0.77,enough cells in well,inactive
Bcl9 (B cell CLL/lymphoma 9),1,0.27,enough cells in well,inactive
Fbxw2 (F-box and WD-40 domain protein 2),1,-0.87,enough cells in well,inactive
"Gng4 (guanine nucleotide binding protein (G protein), gamma 4)",1,-1.29,enough cells in well,inactive
1700129L13RIK,1,-1.41,enough cells in well,active
Mtnr1a (melatonin receptor 1A),1,0.14,enough cells in well,inactive
Prickle3 (prickle planar cell polarity protein 3),1,-0.75,enough cells in well,inactive
Dcakd (dephospho-CoA kinase domain containing),1,0.26,enough cells in well,inactive
Gpr139 (G protein-coupled receptor 139),1,-0.93,enough cells in well,inactive
Phxr4 (per-hexamer repeat gene 4),1,0.75,enough cells in well,inactive
